Laboratory results as given in patent publication US20240343815A1.
No constants are given. Whether binding was seen depends on the method and setting. Some results given as binding are weak or reduced against the parent protein; the word gives no strength.

Target: cynomolgus monkey IL4Rα-his protein (cynomolgus monkey)
Experiment: SPR Biacore, mAb captured, cynomolgus IL4Rα-his analyte

binding	Binder
binds	Chimeric C2C1A1A1 (antibody, human IgG4 S228P, kappa, V domains shown) VH: EVQLVESGGGLVQPGGSLKLSCAASGFTFSTYGMSWVRQTPDKRLELVATINSNGGSTSYPDSVKGRFTISRDNAKNTLYLQMSSLKSEDTAMFYCARFFRFRNAMDYWGQGTSVTVSS VL: DIQMTQSPASLSASVGETVTITCRTSENIYSYLAWYQQKQGKSPQFLVYNAKTLAEGVPSRFSGSGSGTQFSLNINSLQSEDFGSYYCQHYYGPPTWTFGGGTKLEIKR
binds	huC2C1A1A1-V15 (antibody, human IgG4 S228P, kappa, V domains shown) VH: EVQLVESGGGLVQPGGSLRLSCAASGFTFSTYGMSWVRQAPGKGLVWVATINSNGGSTSYPDSVKGRFTISRDNAKNTLYLQMNSLRAEDTAVYYCARFFRFRNAMDYWGQGTLVTVSS VL: DIQMTQSPSSLSASVGDRVTITCRTSENIYSYLAWYQQKPGKAPKFLVYNAKTLAEGVPSRFSGSGSGTDFTLTISSLQPEDFATYYCQHYYGPPTWTFGQGTKVEIKR
binds	huC2C1A1A1-V14 (antibody, human IgG4 S228P, kappa, V domains shown) VH: EVQLVESGGGLVQPGGSLRLSCAASGFTFSTYGMSWVRQAPGKGLVWVATINSNGGSTSYPDSVKGRFTISRDNAKNTLYLQMNSLRAEDTAVYYCARFFRFRNAMDYWGQGTLVTVSS VL: DIQMTQSPSSLSASVGQRVTITCRTSENIYSYLAWYQQKQGKPPRFLIYNAKTLAEGVPSRFSGSGSGTEFTLTITSLQAEDFGVYYCQHYYGPPTWTFGPGTKLEIKR
